Measurements reported in PubChem BioAssay AID1259405 (NCATS, 2018)
In all, the deposit lists about 50,000 reagents; below is a random part of them. About 4,000 of all reagents (8%) were called active. 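Mouse siRNA library applied to hamster cells; one well for each siRNA.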 A number with no mark means an inactive call.

- Aim: 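Mouse-designed siRNAs used to find CHO productivity engineering targets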 (primary screen)
- Cells: Chinese hamster CHO-K1 ovary cells with stable secreted eGFP expression
- Reagent: single siRNA against mouse genes, 0.8 pmol siRNA per well (2 µl of 400 nM stock)
- Time to read-out: 3 days
- Measurement: 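Per-well intracellular GFP measured by laser scanning cytometry, plus viability from ATP luminescence, each relative to plate median of non-targeting control wells, in %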
- Reading the numbers: GFP, % of control: higher = more GFP per well, higher productivity; viability (ATP), % of control: higher = more viable cells (more ATP)
- Hit rule: 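Called active when intracellular GFP, relative to negative control, is at or above 120%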

Cmtm3 [SID363550109] | GFP, % of control: 79.4; viability (ATP), % of control: 86.8
Cmtm3 [SID363564618] | GFP, % of control: 86.6; viability (ATP), % of control: 72.7
Cmtm3 [SID363588163] | GFP, % of control: 97; viability (ATP), % of control: 106
Tshb [SID363541929] | GFP, % of control: 56.8; viability (ATP), % of control: 54.8
Tshb [SID363553521] | GFP, % of control: 59.6; viability (ATP), % of control: 70.6
Tshb [SID363566845] | GFP, % of control: 62.6; viability (ATP), % of control: 68
Or1i2 [SID363544439] | GFP, % of control: 53.3; viability (ATP), % of control: 49.7
Or1i2 [SID363550767] | GFP, % of control: 102; viability (ATP), % of control: 71.1
Or1i2 [SID363557316] | GFP, % of control: 47.5; viability (ATP), % of control: 45.1
Cabp5 [SID363582575] | GFP, % of control: 98.9; viability (ATP), % of control: 96.6
Cabp5 [SID363584335] | GFP, % of control: 114; viability (ATP), % of control: 105
Lgi2 [SID363544290] | GFP, % of control: 59.2; viability (ATP), % of control: 47.9
Lgi2 [SID363550618] | GFP, % of control: 89.1; viability (ATP), % of control: 81.8
Lgi2 [SID363557167] | GFP, % of control: 67.5; viability (ATP), % of control: 77
Nploc4 [SID363546564] | GFP, % of control: 56.4; viability (ATP), % of control: 26.8
Nploc4 [SID363548320] | GFP, % of control: 62; viability (ATP), % of control: 77.4
Nploc4 [SID363560498] | GFP, % of control: 121 (active); viability (ATP), % of control: 92.1
Inf2 [SID363541195] | GFP, % of control: 55.6; viability (ATP), % of control: 65.7
Inf2 [SID363555822] | GFP, % of control: 81.1; viability (ATP), % of control: 88.1
Inf2 [SID363566111] | GFP, % of control: 42.3; viability (ATP), % of control: 40.9
Dzip1l [SID363545920] | GFP, % of control: 132 (active); viability (ATP), % of control: 122
Dzip1l [SID363549433] | GFP, % of control: 101; viability (ATP), % of control: 92.5
Dzip1l [SID363563239] | GFP, % of control: 96.1; viability (ATP), % of control: 63.6
Pax2 [SID363545954] | GFP, % of control: 134 (active); viability (ATP), % of control: 85.3
Pax2 [SID363549467] | GFP, % of control: 96.4; viability (ATP), % of control: 63.2
Pax2 [SID363563273] | GFP, % of control: 26.9; viability (ATP), % of control: 37.8
Cpeb1 [SID363546133] | GFP, % of control: 78; viability (ATP), % of control: 87.8
Cpeb1 [SID363549646] | GFP, % of control: 47.3; viability (ATP), % of control: 61.8
Cpeb1 [SID363563452] | GFP, % of control: 67; viability (ATP), % of control: 64.5
Nomo1 [SID363539781] | GFP, % of control: 78; viability (ATP), % of control: 92.6
Nomo1 [SID363561082] | GFP, % of control: 69.7; viability (ATP), % of control: 91.2
Nomo1 [SID363565172] | GFP, % of control: 144 (active); viability (ATP), % of control: 39.4
Tirap [SID363555457] | GFP, % of control: 91.1; viability (ATP), % of control: 92.7
Tirap [SID363564118] | GFP, % of control: 84.1; viability (ATP), % of control: 62.2
Tirap [SID363587664] | GFP, % of control: 86; viability (ATP), % of control: 92.8
Mrps9 [SID363553939] | GFP, % of control: 111; viability (ATP), % of control: 90.6
Mrps9 [SID363561896] | GFP, % of control: 153 (active); viability (ATP), % of control: 114
Mrps9 [SID363565634] | GFP, % of control: 72; viability (ATP), % of control: 81.3
Ccrl2 [SID363571238] | GFP, % of control: 68.5; viability (ATP), % of control: 63.4
Ccrl2 [SID363571590] | GFP, % of control: 75.9; viability (ATP), % of control: 60.9
Ccrl2 [SID363571942] | GFP, % of control: 117; viability (ATP), % of control: 66.2
Or14j10 [SID363544593] | GFP, % of control: 111; viability (ATP), % of control: 49.4
Or14j10 [SID363550921] | GFP, % of control: 49.5; viability (ATP), % of control: 65
Or14j10 [SID363557470] | GFP, % of control: 52.5; viability (ATP), % of control: 35.5
Sla [SID363545054] | GFP, % of control: 113; viability (ATP), % of control: 96.6
Sla [SID363551382] | GFP, % of control: 72.1; viability (ATP), % of control: 77.2
Sla [SID363557931] | GFP, % of control: 45.8; viability (ATP), % of control: 44.5
Ift20 [SID363540803] | GFP, % of control: 84.9; viability (ATP), % of control: 88.4
Ift20 [SID363543254] | GFP, % of control: 79.6; viability (ATP), % of control: 67.3
Ift20 [SID363552747] | GFP, % of control: 13.1; viability (ATP), % of control: 11.8
Or5e1 [SID363544972] | GFP, % of control: 83.5; viability (ATP), % of control: 46.5
Or5e1 [SID363551300] | GFP, % of control: 78.2; viability (ATP), % of control: 97.9
Or5e1 [SID363557849] | GFP, % of control: 104; viability (ATP), % of control: 112

Part of the list above, reformatted:
{"gene":"Inf2","PubChem SID":"SID363541195","GFP, % of control":55.6,"viability (ATP), % of control":65.7}
{"gene":"Inf2","PubChem SID":"SID363555822","GFP, % of control":81.1,"viability (ATP), % of control":88.1}
{"gene":"Inf2","PubChem SID":"SID363566111","GFP, % of control":42.3,"viability (ATP), % of control":40.9}
{"gene":"Dzip1l","PubChem SID":"SID363545920","GFP, % of control":"132 (active)","viability (ATP), % of control":122}
{"gene":"Dzip1l","PubChem SID":"SID363549433","GFP, % of control":101,"viability (ATP), % of control":92.5}
